Experimental data taken from publication PMC3114845, “Bordetella pertussis Autotransporter Vag8 Binds Human C1 Esterase Inhibitor and Confers Serum Resistance” (PLoS ONE, 2011).
No constants are given. Whether binding was seen depends on the method and setting. Some binding calls cover weakened binding; strength is not graded here. For part of these data: Sequences can lack the tags named with a protein.

How the values were obtained:
[1] = molecular target: T1, BrkA expressed from plasmid pBrkA in BP338Vag8^- (Bordetella pertussis) (UniProt Q45340); test: surface-binding assay (bacteria in serum, immunoblot of cell-associated C1inh); viable bacteria exposed to normal human serum 15 min at 37°C, on ice 5 min, washed 3 times, pelleted; cell-associated C1inh detected by immunoblot; vag8 knock-out strains as controls
T1 sequence: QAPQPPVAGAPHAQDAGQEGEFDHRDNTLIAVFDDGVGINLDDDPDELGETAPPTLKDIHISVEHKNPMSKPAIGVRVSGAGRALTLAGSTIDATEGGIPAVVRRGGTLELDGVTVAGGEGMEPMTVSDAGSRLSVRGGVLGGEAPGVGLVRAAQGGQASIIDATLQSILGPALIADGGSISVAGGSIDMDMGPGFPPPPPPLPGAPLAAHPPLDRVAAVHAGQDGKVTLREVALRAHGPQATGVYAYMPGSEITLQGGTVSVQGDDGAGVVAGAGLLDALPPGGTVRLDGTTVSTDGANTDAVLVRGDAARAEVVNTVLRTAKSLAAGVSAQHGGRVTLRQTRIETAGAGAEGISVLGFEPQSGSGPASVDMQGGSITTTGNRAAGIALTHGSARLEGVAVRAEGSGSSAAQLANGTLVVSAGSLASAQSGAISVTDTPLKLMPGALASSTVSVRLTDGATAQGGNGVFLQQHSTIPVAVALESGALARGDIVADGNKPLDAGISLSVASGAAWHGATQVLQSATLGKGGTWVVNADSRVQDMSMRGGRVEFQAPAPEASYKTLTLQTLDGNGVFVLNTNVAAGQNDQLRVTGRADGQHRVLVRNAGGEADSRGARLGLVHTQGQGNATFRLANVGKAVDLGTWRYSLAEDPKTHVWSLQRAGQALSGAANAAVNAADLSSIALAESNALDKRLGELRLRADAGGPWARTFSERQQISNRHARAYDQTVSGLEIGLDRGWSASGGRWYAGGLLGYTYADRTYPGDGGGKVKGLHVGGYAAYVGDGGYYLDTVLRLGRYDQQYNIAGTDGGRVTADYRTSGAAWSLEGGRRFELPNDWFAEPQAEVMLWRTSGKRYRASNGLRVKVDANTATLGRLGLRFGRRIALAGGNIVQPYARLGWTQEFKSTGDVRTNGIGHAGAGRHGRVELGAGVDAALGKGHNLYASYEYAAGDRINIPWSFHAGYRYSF

[2] = molecular target: T2, histidine-tagged Vag8 passenger domain (residues Val40 to Leu610) (Bordetella pertussis) (UniProt Q79GN7); test: ELISA; MaxiSorp plates coated with two-fold dilutions of purified passenger domain (top 5 µg/ml); probed 1 h at room temperature with 2% normal human serum in 1x Veronal buffer; detected with goat anti-C1inh; only the target purified
T2 sequence: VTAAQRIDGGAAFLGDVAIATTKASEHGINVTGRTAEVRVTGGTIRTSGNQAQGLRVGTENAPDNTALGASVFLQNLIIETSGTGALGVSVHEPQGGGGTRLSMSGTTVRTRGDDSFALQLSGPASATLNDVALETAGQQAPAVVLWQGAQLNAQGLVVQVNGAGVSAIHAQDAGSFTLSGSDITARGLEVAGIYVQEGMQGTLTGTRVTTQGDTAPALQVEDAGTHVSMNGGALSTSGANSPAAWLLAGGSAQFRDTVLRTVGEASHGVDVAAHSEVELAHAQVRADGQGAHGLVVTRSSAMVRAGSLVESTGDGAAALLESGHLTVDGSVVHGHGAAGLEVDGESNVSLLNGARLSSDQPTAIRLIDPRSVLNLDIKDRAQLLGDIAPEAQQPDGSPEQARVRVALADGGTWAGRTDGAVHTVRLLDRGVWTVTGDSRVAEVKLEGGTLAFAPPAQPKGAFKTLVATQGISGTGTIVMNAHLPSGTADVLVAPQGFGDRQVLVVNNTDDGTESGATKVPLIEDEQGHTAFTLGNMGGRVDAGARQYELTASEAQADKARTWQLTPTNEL

[3] = molecular target: T2, histidine-tagged Vag8 passenger domain (residues Val40 to Leu610) (Bordetella pertussis); test: far-Western, overlay or dot blot; data not shown; purified Vag8 or BrkA passenger domains on SDS-PAGE, blotted, renatured, overlaid with 1% normal human serum in Veronal buffer; detected with anti-C1inh; only the target purified

B1: purified human C1 esterase inhibitor (natural protein)
chain: NPNATSSSSQDPESLQDRGEGKVATTVISKMLFVEPILEVSSLPTTNSTTNSATKITANTTDEPTTQPTTEPTTQPTIQPTQPTTQLPTDSPTQPTTGSFCPGPVTLCSDLESHSTEAVLGDALVDFSLKLYHAFSAMKKVETNMAFSPFSIASLLTQVLLGAGENTKTNLESILSYPKDFTCVHQALKGFTTKGVTSVSQIFHSPDLAIRDTFVNASRTLYSSSPRVLSNNSDANLELINTWVAKNTNNKISRLLDSLPSDTRLVLLNAIYLSAKWKTTFDPKKTRMEPFHFKNSVIKVPMMNSKKYPVAHFIDQTLKAKVGQLQLSHNLSLVILVPQNLKHRLEDMEQALSPSVFKAIMEKLEMSKFQPTLLTLPRIKVTTSQDMLSIMEKLEFFDFSYDLNLCGLTEDPDLQVSAMQHQTVLELTETGVEAAAASAISVARTLLVFEVQQPFLFVLWDQQHKFPVFMGRVYDPRA
notes: also called C1inh; purified C1inh; source: bought: Advanced Research Technologies (purified human C1inh)
For B1, the binding [1] was “no binding”, the binding [2] was “binds” and the binding [3] was “binds”.
